# Measured values: PubChem BioAssay AID330 (DTP/NCI, 2004)
# The list is a part of this screen's results and no random one: it is rich in T/C values a quarter to a half above the control, in often repeated tests (any T/C) and in doses without a T/C. Other doses and runs of a compound stand elsewhere. T/C gives the treated animals as a percentage of the vehicle group. Some doses have a count of surviving animals in place of a T/C: the source holds a T/C of zero for them, seemingly a mark for toxic or unscored doses. Some survivor counts are full or nearly so, which does not show that the dose was tolerated: survival well below the control is almost never listed, so the zero probably covers shortened survival too. Survivors were counted at the toxicity check, usually on the fifth day, unless a day is given; later deaths do not show. Schedule codes are those of the source, taken here to give the interval after Q, in days (D) or hours (H), and the number of doses after X. Brackets with × stand for listed records that agree. Some entries hold several experiments; the values are given in rising order. Where survival is the endpoint, this PubChem deposit counts one and a half times the control or more as active, and values a quarter to a half above the control carry no call in these data; other NCI protocols may use other cut-offs.
# Test system: P388 leukemia ip, CD2F1 mice, survival T/C
# Experiment: NCI In Vivo Anticancer Drug Screen. Data for tumor model P388 Leukemia (intraperitoneal) in CD2F1 (CDF1) mice
# Details: T/C endpoint: median survival time, higher T/C = longer survival
# [1] = dose: 50.0 mg/kg/injection, schedule: Q01DX009 (ip), vehicle: suspension in saline
# [2] = dose: 100.0 mg/kg/injection, schedule: Q01DX009 (ip), vehicle: suspension in saline
smiles,measurement,setting,value
O=c1n(CC2CO2)c(=O)n(CC2CO2)c(=O)n1CC1CO1 (centres undefined),T/C,"dose: 6.25 mg/kg/injection, schedule: Q01DX009 (ip), vehicle: suspension in saline",139 and 148 % of control
same,T/C,"dose: 7.5 mg/kg/injection, schedule: Q01DX005 (ip), vehicle: saline",136 % of control
same,T/C,"dose: 12.5 mg/kg/injection, schedule: Q01DX009 (ip), vehicle: suspension in saline","135, 156, 165, 177 % of control"
same,T/C,"dose: 22.0 mg/kg/injection, schedule: Q01DX005 (ip), vehicle: saline with Tween-80, evaluated on day 45","210, 218, 233 % of control"
same,T/C,"dose: 22.0 mg/kg/injection, schedule: Q01DX005 (ip), vehicle: saline with Tween-80, evaluated on day 60","209, 211, 215, 227, 235, 244, 271 % of control"
same,T/C,"dose: 25.0 mg/kg/injection, schedule: Q01DX009 (ip), vehicle: suspension in saline","155, 166, 229, 233 % of control"
same,T/C,"dose: 33.0 mg/kg/injection, schedule: Q01DX005 (ip), vehicle: saline with Tween-80, evaluated on day 45","255, 290, 388 % of control"
same,T/C,"dose: 33.0 mg/kg/injection, schedule: Q01DX005 (ip), vehicle: saline with Tween-80, evaluated on day 60","261, 292, 362, 366, 427, 560, 594 % of control"
same,T/C,"dose: 50.0 mg/kg/injection, schedule: Q01DX005 (ip), vehicle: saline with Tween-80, evaluated on day 45","114, 436, 450 % of control"
same,T/C,"dose: 50.0 mg/kg/injection, schedule: Q01DX005 (ip), vehicle: saline with Tween-80, evaluated on day 60","90, 311, 435, 550, 560, 566, 588 % of control"
same,survivor count,"dose: 50.0 mg/kg/injection, schedule: Q01DX009 (ip), vehicle: lactic acid",0 of 6
same,T/C,[1],"184, 235, 291 % of control (2×)"
same,survivor count,[1],9 of 10
same,survivor count,"dose: 60.0 mg/kg/injection, schedule: Q01DX005 (ip), vehicle: saline",7 of 8
same,survivor count,"dose: 75.0 mg/kg/injection, schedule: Q01DX005 (ip), vehicle: saline with Tween-80",10 of 10
same,survivor count,"dose: 100.0 mg/kg/injection, schedule: Q01DX009 (ip), vehicle: lactic acid",0 of 6
same,survivor count,"dose: 100.0 mg/kg/injection, schedule: Q01DX009 (ip), vehicle: saline",5 of 6 (2×)
same,T/C,[2],"145, 238, 247 % of control"
same,survivor count,[2],"4 of 10, 5 of 10, 8 of 10"
same,survivor count,"dose: 110.0 mg/kg/injection, schedule: Q01DX001 (ip), vehicle: saline",3 of 6
same,survivor count,"dose: 120.0 mg/kg/injection, schedule: Q01DX005 (ip), vehicle: saline",3 of 8
same,survivor count,"dose: 200.0 mg/kg/injection, schedule: Q01DX009 (ip), vehicle: lactic acid",0 of 6
same,survivor count,"dose: 200.0 mg/kg/injection, schedule: Q01DX009 (ip), vehicle: saline",3 of 6 and 6 of 6
same,survivor count,"dose: 200.0 mg/kg/injection, schedule: Q01DX009 (ip), vehicle: suspension in saline","0 of 10, 4 of 10, 5 of 10"
Cc1nc(O)c(-c2ccc(Cl)cc2)c(=O)[nH]1,survivor count,"dose: 240.0 mg/kg/injection, schedule: Q01DX005 (ip), vehicle: saline with Tween-80",0 of 6
CNC(=O)OCc1c(COC(=O)NC)c(-c2cc(F)ccc2F)n2c1CCC2,T/C,"dose: 6.25 mg/kg/injection, schedule: Q01DX009 (ip), vehicle: distilled water + Tween-80",147 % of control
same,T/C,"dose: 12.5 mg/kg/injection, schedule: Q01DX009 (ip), vehicle: distilled water + Tween-80",142 % of control
same,survivor count,"dose: 50.0 mg/kg/injection, schedule: Q01DX009 (ip), vehicle: distilled water + Tween-80",6 of 6 (2×)
same,survivor count,"dose: 100.0 mg/kg/injection, schedule: Q01DX009 (ip), vehicle: distilled water + Tween-80",1 of 6
same,survivor count,"dose: 200.0 mg/kg/injection, schedule: Q01DX009 (ip), vehicle: distilled water + Tween-80",0 of 6
Cc1cccc2c(NCCCCCCNc3cc(C)[n+](C)c4c(C)cccc34)cc(C)[n+](C)c12,survivor count,"dose: 50.0 mg/kg/injection, schedule: Q01DX005 (ip), vehicle: saline with Tween-80",0 of 5
same,survivor count,"dose: 100.0 mg/kg/injection, schedule: Q01DX005 (ip), vehicle: saline with Tween-80",0 of 5
same,survivor count,"dose: 200.0 mg/kg/injection, schedule: Q01DX005 (ip), vehicle: saline with Tween-80",0 of 5
CCOc1ccc(NC(=O)c2c(N)n(C)c(=O)n(C)c2=O)cc1,survivor count,"dose: 200.0 mg/kg/injection, schedule: Q01DX009 (ip), vehicle: Klucel (hydroxypropylcellulose) (HPC)",2 of 6
